Results are given in words; binding and its absence hold for the method and conditions named. Binding seen in cells or lysates may run through a third protein. Some binding calls cover weakened binding; strength is not graded here.
Target: TRiC/CCT chaperonin complex subunit CCT5 (human (endogenous in A549)) (UniProt P48643)
Assay: proximity ligation; A549 cells pre-incubated 30 min with 200 µM HSF1A or DMSO or left without, then 100 ng/mL PT for 4 h at 37 °C; fixed, permeabilized; rabbit anti-PT and mouse anti-CCT5 primary antibodies, Duolink PLA; signals counted per cell

Sequences of proteins named here, by UniProt entry; tags and fusion partners are left off. Residues count along the entry.
UniProt P48643: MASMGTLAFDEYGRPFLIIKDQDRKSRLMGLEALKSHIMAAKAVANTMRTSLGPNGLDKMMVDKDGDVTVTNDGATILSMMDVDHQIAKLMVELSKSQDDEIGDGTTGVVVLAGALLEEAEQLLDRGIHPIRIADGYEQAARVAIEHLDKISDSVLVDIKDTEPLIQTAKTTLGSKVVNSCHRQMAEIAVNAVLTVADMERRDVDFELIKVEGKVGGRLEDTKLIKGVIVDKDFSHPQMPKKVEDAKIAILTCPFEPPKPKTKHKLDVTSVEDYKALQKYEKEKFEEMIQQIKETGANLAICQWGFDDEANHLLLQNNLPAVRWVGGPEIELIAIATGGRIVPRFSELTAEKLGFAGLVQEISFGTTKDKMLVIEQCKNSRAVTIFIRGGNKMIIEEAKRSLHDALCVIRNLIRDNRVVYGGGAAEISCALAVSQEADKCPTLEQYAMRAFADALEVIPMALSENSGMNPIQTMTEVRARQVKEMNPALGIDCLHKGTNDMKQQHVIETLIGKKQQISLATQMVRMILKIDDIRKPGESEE
UniProt P04977, residues 35-269: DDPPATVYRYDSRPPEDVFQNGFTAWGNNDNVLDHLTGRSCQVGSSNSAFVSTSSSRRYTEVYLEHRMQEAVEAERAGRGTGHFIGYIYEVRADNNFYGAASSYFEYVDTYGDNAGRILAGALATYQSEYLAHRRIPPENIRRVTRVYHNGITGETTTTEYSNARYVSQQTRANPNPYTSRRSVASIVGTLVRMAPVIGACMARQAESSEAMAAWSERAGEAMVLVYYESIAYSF

“Pertussis toxin enzyme subunit PTS1 (from UniProt P04977 35-269)” was tested, and the binding was “binds”.

Reference: paper PMC10819386
